Here are results for four substances from patent publication US7763234B2 (GE Healthcare AS, priority 2005, dated 2010).

A short description of data set [1]: general procedure: Fmoc solid-phase peptide synthesis; Fmoc-Leu-SASRIN resin; HBTU. Particulars: whole synthesis; for crude mass: scale 0.05 mmol.
Data set [2] can be described thus: general procedure: Fmoc solid-phase peptide synthesis; TentaGel Sac Leu-Fmoc resin; HBTU. Particulars: whole synthesis, scale 0.05 mmol.

“cPn216-Gly-Arg-Val-Tyr-Ile-His-Pro-Phe-His-Leu-OH” registered an isolated mass in data set [1] (scale 0.1 mmol) of 3 mg.

Turning to “N-cPn216-Gly-Arg-Val-Tyr-Ile-His-Pro-Bip-His-Leu-OH”, the crude mass in data set [1] stood at 90 mg. “N-cPn216-Gly-Arg-Val-Tyr-Ile-His-Pro-Hph-His-Leu-OH” had a crude mass in data set [2] of 24 mg. Substance “N-cPn216-Gly-Arg-Val-Tyr-Ile-His-Pro-Ile-His-Leu-OH” came in with a crude mass in data set [1] of 70 mg.
